# Measurements from the supplement of paper PMC10849652.
# Amino acid sequences for entries named in this document (tags omitted). A change or cut given only in a name is not applied to a line headed by its entry.
# UniProt Q16836: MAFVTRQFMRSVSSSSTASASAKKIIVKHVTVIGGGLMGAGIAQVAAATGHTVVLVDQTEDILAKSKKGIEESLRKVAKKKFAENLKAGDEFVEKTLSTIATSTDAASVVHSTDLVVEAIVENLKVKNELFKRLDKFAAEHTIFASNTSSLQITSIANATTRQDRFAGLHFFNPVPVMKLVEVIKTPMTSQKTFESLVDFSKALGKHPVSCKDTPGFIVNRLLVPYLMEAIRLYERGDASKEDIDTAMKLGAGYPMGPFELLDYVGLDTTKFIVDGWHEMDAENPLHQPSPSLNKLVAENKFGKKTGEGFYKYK
# UniProt Q9NRV9: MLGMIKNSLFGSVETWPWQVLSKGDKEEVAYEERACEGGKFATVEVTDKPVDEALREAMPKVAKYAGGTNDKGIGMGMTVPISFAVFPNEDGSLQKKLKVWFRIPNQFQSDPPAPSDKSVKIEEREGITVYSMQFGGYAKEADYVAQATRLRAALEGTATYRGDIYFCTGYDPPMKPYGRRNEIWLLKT
# UniProt P12081: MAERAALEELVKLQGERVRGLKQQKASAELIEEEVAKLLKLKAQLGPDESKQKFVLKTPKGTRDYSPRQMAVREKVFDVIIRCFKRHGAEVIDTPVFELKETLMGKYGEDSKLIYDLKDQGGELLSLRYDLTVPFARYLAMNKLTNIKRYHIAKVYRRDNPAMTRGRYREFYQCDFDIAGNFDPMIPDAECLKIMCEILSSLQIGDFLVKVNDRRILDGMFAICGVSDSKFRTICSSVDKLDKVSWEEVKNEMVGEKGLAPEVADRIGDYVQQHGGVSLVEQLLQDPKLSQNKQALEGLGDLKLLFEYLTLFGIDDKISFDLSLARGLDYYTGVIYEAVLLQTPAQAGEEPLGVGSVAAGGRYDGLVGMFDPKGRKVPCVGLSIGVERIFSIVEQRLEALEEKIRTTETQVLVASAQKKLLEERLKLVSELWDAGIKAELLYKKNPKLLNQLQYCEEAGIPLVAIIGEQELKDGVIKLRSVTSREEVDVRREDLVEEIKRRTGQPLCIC
# UniProt P53701: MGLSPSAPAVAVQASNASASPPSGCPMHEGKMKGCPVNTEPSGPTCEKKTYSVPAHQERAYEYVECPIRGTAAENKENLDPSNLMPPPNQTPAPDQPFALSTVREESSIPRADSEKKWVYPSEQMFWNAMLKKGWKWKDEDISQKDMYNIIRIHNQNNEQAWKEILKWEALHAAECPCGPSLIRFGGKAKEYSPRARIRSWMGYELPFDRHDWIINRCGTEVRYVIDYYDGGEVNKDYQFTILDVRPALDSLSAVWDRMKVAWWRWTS
# UniProt Q00341: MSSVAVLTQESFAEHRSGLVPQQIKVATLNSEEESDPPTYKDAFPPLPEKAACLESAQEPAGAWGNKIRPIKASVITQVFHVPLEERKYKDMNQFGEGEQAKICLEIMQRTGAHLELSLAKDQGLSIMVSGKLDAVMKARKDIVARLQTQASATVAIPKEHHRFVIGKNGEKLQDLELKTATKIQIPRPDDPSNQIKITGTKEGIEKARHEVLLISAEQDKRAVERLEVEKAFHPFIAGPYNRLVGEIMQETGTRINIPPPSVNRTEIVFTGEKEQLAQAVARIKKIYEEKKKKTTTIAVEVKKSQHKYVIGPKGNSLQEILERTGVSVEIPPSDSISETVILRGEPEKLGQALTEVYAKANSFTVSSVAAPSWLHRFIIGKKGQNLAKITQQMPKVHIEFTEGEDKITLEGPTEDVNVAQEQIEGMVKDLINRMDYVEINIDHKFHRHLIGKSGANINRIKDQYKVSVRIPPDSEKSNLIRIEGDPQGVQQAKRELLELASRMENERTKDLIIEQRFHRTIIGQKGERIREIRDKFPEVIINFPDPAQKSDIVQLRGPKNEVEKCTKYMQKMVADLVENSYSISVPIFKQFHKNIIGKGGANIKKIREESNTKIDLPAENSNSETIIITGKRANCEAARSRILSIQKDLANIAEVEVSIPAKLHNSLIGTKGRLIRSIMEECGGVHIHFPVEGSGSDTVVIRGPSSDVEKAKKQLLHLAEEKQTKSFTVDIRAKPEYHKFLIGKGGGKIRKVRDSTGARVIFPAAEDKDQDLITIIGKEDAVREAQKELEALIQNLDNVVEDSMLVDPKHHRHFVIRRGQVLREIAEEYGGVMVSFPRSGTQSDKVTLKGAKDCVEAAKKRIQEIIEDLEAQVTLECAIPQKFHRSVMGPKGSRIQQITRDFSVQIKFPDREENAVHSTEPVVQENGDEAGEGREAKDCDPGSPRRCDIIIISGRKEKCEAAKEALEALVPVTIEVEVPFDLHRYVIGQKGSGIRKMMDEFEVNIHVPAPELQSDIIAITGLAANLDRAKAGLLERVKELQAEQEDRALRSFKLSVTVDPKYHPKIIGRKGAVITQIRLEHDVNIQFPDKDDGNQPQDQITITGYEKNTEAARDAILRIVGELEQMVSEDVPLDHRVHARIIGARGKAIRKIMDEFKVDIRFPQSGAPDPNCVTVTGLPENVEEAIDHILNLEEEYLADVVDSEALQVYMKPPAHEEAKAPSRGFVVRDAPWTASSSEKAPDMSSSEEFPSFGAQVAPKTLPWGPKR
# UniProt O00178: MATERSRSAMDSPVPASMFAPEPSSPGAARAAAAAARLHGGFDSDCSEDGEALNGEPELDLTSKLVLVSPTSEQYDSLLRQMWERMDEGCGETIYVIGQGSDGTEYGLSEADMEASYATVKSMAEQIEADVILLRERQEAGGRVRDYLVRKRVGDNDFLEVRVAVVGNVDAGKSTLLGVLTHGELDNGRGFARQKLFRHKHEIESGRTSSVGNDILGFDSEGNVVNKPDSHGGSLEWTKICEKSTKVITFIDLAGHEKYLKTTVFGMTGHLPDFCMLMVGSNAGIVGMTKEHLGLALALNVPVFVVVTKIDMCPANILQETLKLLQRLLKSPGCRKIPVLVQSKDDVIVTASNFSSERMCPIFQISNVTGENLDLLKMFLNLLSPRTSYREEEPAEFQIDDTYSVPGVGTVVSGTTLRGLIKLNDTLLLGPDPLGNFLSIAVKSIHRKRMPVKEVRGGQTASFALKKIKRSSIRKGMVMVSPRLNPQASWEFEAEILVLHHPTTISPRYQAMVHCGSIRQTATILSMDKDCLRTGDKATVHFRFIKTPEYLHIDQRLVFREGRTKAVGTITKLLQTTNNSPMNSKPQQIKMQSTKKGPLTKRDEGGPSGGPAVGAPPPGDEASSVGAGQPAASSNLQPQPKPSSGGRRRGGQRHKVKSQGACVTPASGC
# UniProt Q9Y2Q3: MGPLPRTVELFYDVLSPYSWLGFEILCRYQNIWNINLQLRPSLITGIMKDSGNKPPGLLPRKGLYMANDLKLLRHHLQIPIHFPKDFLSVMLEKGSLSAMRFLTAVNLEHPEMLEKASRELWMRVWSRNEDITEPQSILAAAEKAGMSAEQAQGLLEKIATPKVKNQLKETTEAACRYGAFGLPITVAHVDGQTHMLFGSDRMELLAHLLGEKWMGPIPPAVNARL
# UniProt Q6PII5: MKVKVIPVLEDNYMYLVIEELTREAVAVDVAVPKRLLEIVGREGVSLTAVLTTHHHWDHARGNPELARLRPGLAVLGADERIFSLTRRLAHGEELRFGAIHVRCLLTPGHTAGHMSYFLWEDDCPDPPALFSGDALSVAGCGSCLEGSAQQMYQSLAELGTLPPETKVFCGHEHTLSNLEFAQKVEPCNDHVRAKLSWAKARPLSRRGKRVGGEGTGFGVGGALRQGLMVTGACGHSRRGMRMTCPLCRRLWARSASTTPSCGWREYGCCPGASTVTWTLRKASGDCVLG
# UniProt P0C0S5, whole entry, looked up: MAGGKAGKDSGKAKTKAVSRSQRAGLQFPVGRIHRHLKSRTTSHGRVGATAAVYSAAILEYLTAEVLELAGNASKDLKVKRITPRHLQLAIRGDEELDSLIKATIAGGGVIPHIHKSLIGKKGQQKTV
# UniProt Q13888: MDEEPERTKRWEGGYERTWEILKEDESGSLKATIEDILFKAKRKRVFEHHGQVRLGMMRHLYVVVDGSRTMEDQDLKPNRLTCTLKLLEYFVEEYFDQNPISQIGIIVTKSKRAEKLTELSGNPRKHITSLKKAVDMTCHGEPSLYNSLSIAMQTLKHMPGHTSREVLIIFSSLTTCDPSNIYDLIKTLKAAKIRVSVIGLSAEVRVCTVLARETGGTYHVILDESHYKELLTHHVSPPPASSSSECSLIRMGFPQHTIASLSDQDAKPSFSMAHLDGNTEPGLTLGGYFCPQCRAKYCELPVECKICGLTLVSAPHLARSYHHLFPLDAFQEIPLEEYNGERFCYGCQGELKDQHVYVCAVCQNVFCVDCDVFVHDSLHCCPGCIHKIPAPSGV
# UniProt Q9BXW7: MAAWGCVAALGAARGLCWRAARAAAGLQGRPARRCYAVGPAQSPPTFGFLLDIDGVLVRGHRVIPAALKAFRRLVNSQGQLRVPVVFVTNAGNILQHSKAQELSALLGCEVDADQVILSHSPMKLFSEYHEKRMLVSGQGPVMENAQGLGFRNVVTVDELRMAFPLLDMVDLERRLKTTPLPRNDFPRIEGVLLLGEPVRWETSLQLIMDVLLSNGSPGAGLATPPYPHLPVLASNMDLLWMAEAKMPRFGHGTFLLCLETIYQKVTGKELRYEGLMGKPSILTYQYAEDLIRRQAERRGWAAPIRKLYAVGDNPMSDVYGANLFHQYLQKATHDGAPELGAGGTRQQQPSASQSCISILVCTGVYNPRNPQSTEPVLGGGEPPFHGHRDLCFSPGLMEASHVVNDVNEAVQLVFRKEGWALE
# UniProt P02042: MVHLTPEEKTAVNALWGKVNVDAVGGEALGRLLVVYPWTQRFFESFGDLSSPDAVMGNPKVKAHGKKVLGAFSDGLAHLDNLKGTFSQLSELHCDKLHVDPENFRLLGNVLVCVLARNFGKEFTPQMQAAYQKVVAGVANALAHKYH
# UniProt Q9NYZ3: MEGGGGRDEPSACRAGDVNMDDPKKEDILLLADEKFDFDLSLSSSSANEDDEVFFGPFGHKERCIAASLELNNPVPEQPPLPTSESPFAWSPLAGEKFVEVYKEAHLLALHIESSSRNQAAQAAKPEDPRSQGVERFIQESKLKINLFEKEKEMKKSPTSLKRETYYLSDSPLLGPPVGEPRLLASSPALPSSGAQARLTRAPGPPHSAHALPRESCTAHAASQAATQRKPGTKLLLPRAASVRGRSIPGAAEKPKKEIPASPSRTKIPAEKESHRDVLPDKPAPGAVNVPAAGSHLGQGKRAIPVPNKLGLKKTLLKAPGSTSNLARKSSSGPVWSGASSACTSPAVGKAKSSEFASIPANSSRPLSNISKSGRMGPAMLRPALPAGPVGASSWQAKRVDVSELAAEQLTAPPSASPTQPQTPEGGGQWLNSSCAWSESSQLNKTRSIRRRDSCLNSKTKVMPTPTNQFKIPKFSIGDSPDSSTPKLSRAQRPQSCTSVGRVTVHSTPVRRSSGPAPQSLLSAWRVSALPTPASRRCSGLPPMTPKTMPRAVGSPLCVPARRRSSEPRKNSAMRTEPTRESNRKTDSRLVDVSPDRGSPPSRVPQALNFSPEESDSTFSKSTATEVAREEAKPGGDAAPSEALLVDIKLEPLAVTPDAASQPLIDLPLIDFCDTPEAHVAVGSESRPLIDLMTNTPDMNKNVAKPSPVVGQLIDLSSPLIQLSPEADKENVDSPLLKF
# UniProt P02724: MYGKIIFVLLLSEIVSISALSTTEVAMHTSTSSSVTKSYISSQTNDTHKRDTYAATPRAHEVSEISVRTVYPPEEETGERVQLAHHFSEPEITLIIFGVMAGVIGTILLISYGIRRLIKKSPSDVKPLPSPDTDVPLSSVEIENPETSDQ
# UniProt P55084: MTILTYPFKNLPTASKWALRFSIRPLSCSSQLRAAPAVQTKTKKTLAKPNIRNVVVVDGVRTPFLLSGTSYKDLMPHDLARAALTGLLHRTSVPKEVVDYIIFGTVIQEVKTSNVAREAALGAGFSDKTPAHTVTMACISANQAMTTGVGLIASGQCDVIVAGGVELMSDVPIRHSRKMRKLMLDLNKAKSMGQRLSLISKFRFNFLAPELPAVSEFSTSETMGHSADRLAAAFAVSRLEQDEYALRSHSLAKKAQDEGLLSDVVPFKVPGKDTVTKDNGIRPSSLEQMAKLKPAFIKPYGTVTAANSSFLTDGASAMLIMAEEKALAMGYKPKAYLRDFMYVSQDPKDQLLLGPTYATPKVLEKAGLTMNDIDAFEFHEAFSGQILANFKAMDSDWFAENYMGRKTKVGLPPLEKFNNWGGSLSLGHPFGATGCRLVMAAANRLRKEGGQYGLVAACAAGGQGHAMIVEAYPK
# This is one part of the list. Residues, ends and D or L forms follow the SMILES beside them. *: point of attachment. Cbz = O=C(OCc1ccccc1)*
# Key:
# Test in all cases: log2 fold change, soluble protein after heating vs DMSO (PISA); higher = thermal stabilisation; K562 cells, 10 uM, 30 min; active = over 0.2 and 3.5 SD of the protein, either way, in both replicates (recomputed)
# IRAK-1-4 Inhibitor I = compound: C1COCCN1CCN2C3=CC=CC=C3N=C2NC(=O)C4=CC(=CC=C4)[N+](=O)[O-] [IRAK-1-4 Inhibitor I]
# Outline: (§1)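 K562 cells at 2×10^6 cells/mL were treated with 10 μM compound for 30 min. Aliquots were heated for 3 min across 48°C-58°C, pooled, and extracted in PBS with 0.5% NP-40 at 4°C; soluble protein was the supernatant after 21,000xg for 90 min. Soluble protein was quantified by TMTpro 16plex LC-MS/MS with channel sums equalised, and reported as log2 fold change in thermal stability against DMSO controls, with values from duplicates.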
# ibrutinib = compound: C=CC(=O)N1CCC[C@@H](n2nc(-c3ccc(Oc4ccccc4)cc3)c3c(N)ncnc32)C1 [ibrutinib]
# Outline: as §1
# [1] = compound: CC(=O)c1cnc2ccc(-c3cc(Cl)c(O)c(Cl)c3)nc2c1N[C@H]1CC[C@H](CN(C)C)CC1
# Outline: as §1
# ralimetinib = compound: CC(C)(C)Cn1c(N)nc2ccc(-c3[nH]c(C(C)(C)C)nc3-c3ccc(F)cc3)nc21 [ralimetinib]
# Outline: as §1
# [2] = compound: CC(C)(O)CC(=O)NCCn1ccc2ncnc(Nc3ccc(Oc4cccc(C(F)(F)F)c4)c(Cl)c3)c21
# Outline: as §1
# [3] = compound: CC(C)C1=C2N=C(C=C(N2N=C1)NCC3=CC=CC=C3)NCCCCCCN
# Outline: as §1
# [4] = compound: CC(C)C[C@@H](C=O)NC(=O)[C@H](CC(C)C)NC(=O)[C@H](CC(C)C)NC(=O)OCc1ccccc1
# Outline: as §1
# pinometostat = compound: CC(C)N(C[C@H]1O[C@@H](n2cnc3c(N)ncnc32)[C@H](O)[C@@H]1O)[C@H]1C[C@@H](CCc2nc3cc(C(C)(C)C)ccc3[nH]2)C1 [pinometostat]
# Outline: as §1
# [5] = compound: CC1=C(C(CC(=O)N1)C2=CC=C(C=C2)C(F)(F)F)C(=O)NC3=C(C=C4C(=C3)C=NN4)F
# Outline: as §1
# [6] = compound: CC1=C(C2=C(C=C1)C(=O)C3=CC=CC=C3N2CCCN)C
# Outline: as §1
# [7] = compound: CC1=C(C=C(C=C1)NC(=O)C2=CC(=CC=C2)C(C)(C)C#N)NC3=CC4=C(C=C3)N=CN(C4=O)C
# Outline: as §1
# [8] = compound: CC1=C(C=C(C=C1)NC(=O)C2=CC(=CC=C2)N(C)C)NC(=O)C3=CC=C(C=C3)O
# Outline: as §1
# [9] = compound: CC1=CC=C(C=C1)SC2=C3C=C(SC3=CN=C2)C(=O)N
# Outline: as §1
# [10] = compound: CC1=NC(=CC=C1)C2=C(N=C(N2)C(C)(C)C)C3=CC4=NC=CN=C4C=C3
# Outline: as §1
# Nexturastat A = compound: CCCCN(Cc1ccc(C(=O)NO)cc1)C(=O)Nc1ccccc1 [Nexturastat A]
# Outline: as §1
# vemurafenib = compound: CCCS(=O)(=O)Nc1ccc(F)c(C(=O)c2c[nH]c3ncc(-c4ccc(Cl)cc4)cc23)c1F [vemurafenib]
# Outline: as §1
# [11] = compound: CCCS(=O)(=O)Nc1ccc(F)c(C(=O)c2c[nH]c3ncc(Cl)cc23)c1F
# Outline: as §1
# [12] = compound: CCCc1cc(C)[nH]c(=O)c1CNC(=O)c1cc(-c2ccnc(N3CCN(C)CC3)c2)cc2c1cnn2C(C)C
# Outline: as §1
# givinostat = compound: CCN(CC)Cc1ccc2cc(COC(=O)Nc3ccc(C(=O)NO)cc3)ccc2c1 [givinostat]
# Outline: as §1
# barasertib = compound: CCN(CCCOc1ccc2c(Nc3cc(CC(=O)Nc4cccc(F)c4)[nH]n3)ncnc2c1)CCOP(=O)(O)O [barasertib]
# Outline: as §1
Target,log2 fold change (IRAK-1-4 Inhibitor I),log2 fold change (ibrutinib),log2 fold change [1],log2 fold change (ralimetinib),log2 fold change [2],log2 fold change [3],log2 fold change [4],log2 fold change (pinometostat),log2 fold change [5],log2 fold change [6],log2 fold change [7],log2 fold change [8],log2 fold change [9],log2 fold change [10],log2 fold change (Nexturastat A),log2 fold change (vemurafenib),log2 fold change [11],log2 fold change [12],log2 fold change (givinostat),log2 fold change (barasertib)
HADH isoform 2 (UniProt Q16836),inactive: 0.022,inactive: 0.006,inactive: -0.035,inactive: -0.039,inactive: -0.004,inactive: 0.081,inactive: -0.022,inactive: -0.033,inactive: -0.013,inactive: 0.024,inactive: 0.034,inactive: -0.016,inactive: -0.046,inactive: 0.007,inactive: -0.065,inactive: 0.011,inactive: -0.043,inactive: 0.003,inactive: -0.033,inactive: 0.035
HEBP1 (UniProt Q9NRV9),inactive: 0.237,inactive: 0.06,inactive: -0.022,inactive: 0.135,inactive: 0.069,inactive: 0.394,inactive: -0.267,inactive: 0.101,inactive: -0.158,inactive: 0.018,inactive: 0.393,inactive: 0.234,inactive: 0.039,inactive: -0.091,inactive: -0.006,inactive: 0.037,inactive: 0.012,inactive: 0.264,inactive: -0.07,inactive: -0.014
HARS (UniProt P12081),inactive: 0.032,inactive: 0.012,inactive: 0.006,inactive: -0.054,inactive: 0.019,inactive: 0.035,inactive: -0.034,inactive: -0.033,inactive: 0.009,inactive: -0.006,inactive: -0.033,inactive: 0.021,inactive: -0.007,inactive: 0,inactive: -0.033,inactive: -0.02,inactive: -0.025,inactive: -0.02,inactive: -0.082,inactive: 0.006
HCCS (UniProt P53701),inactive: 0.024,inactive: 0.01,inactive: -0.001,inactive: -0.103,inactive: -0.001,inactive: -0.011,inactive: 0.044,inactive: -0.014,inactive: 0.017,inactive: 0,inactive: -0.03,inactive: 0.021,inactive: 0.034,inactive: -0.011,inactive: -0.025,inactive: -0.033,inactive: 0,inactive: -0.059,inactive: -0.021,inactive: -0.01
HDLBP (UniProt Q00341),inactive: -0.234,inactive: -0.054,inactive: 0.05,inactive: 0.219,inactive: 0.023,inactive: -0.238,inactive: 0.155,inactive: 0.361,inactive: 0.036,inactive: -0.054,inactive: 0.027,inactive: 0.048,inactive: -0.082,inactive: -0.048,inactive: 0.383,inactive: -0.062,inactive: 0.102,inactive: 0.17,inactive: 0.133,inactive: -0.024
GTPBP1 (UniProt O00178),inactive: 0.026,inactive: 0.009,inactive: -0.02,inactive: 0,inactive: 0.014,inactive: 0.001,inactive: 0.037,inactive: 0.038,inactive: -0.008,inactive: -0.053,inactive: -0.036,inactive: -0.032,inactive: 0.011,inactive: -0.028,inactive: 0.022,inactive: 0.018,inactive: 0.009,inactive: 0.05,inactive: 0.004,inactive: 0.014
GSTK1 (UniProt Q9Y2Q3),inactive: -0.006,inactive: -0.025,inactive: -0.073,inactive: -0.035,inactive: -0.045,inactive: 0.061,inactive: 0,inactive: -0.053,inactive: -0.014,inactive: 0.106,inactive: 0.041,inactive: -0.019,inactive: 0.031,inactive: 0.064,inactive: -0.023,inactive: 0.117,inactive: -0.012,inactive: -0.029,inactive: 0.019,inactive: 0.03
HAGHL isoform 2 (UniProt Q6PII5),inactive: -0.018,inactive: 0.09,inactive: -0.135,inactive: 0.209,inactive: -0.099,inactive: 0.037,inactive: -0.036,inactive: 0,inactive: -0.031,,inactive: 0.111,inactive: -0.024,,inactive: 0.059,inactive: -0.087,inactive: 0.112,,inactive: -0.052,inactive: 0.036,inactive: 0
H2AZ1 (UniProt P0C0S5),inactive: -0.115,inactive: 0.087,inactive: -0.125,inactive: 0.247,inactive: 0.031,inactive: -0.022,inactive: 0.244,inactive: 0.268,,active: 1.74,inactive: -0.051,inactive: 0,inactive: -0.174,inactive: -0.01,active: 0.75,inactive: -0.209,inactive: 0.233,inactive: 0.074,inactive: 0.454,inactive: -0.083
GTF2H2 (UniProt Q13888),inactive: 0.034,inactive: -0.028,inactive: -0.031,inactive: 0.011,inactive: -0.009,inactive: 0.022,inactive: 0.095,inactive: 0.034,inactive: 0.037,inactive: 0.056,inactive: -0.027,inactive: 0.004,inactive: 0,inactive: -0.033,inactive: 0.08,inactive: 0.016,inactive: -0.023,inactive: 0.008,inactive: -0.004,inactive: -0.001
HDHD5 (UniProt Q9BXW7),inactive: 0.012,inactive: 0.025,inactive: -0.03,inactive: -0.016,inactive: 0,inactive: -0.026,inactive: -0.002,inactive: 0.028,inactive: 0.025,inactive: 0.08,inactive: 0.075,inactive: -0.073,inactive: 0.132,inactive: -0.008,inactive: 0.064,inactive: -0.023,inactive: 0.197,inactive: 0.191,inactive: -0.029,inactive: 0.026
HBD (UniProt P02042),inactive: -0.019,inactive: 0.121,inactive: 0,inactive: -0.062,inactive: -0.009,inactive: 0.07,inactive: -0.07,inactive: -0.062,inactive: 0.025,inactive: 0.088,inactive: -0.093,inactive: -0.101,inactive: 0.102,inactive: 0.045,inactive: 0.039,inactive: 0.139,inactive: -0.059,inactive: -0.065,inactive: -0.048,inactive: 0.048
GTSE1 (UniProt Q9NYZ3),inactive: -0.173,inactive: -0.074,inactive: 0.016,inactive: -0.007,inactive: -0.01,inactive: -0.002,inactive: 0.047,inactive: 0.009,inactive: 0.034,inactive: -0.009,inactive: -0.152,inactive: 0.04,inactive: 0.081,inactive: 0.127,inactive: 0.133,inactive: -0.11,inactive: 0.14,inactive: 0.027,inactive: 0.286,inactive: 0.045
GYPA (UniProt P02724),inactive: 0.191,inactive: -0.058,inactive: -0.039,inactive: 0.049,inactive: -0.071,inactive: 0.263,inactive: -0.025,inactive: 0.03,inactive: -0.097,inactive: 0.074,inactive: 0.033,inactive: 0.033,inactive: -0.027,inactive: 0.207,inactive: -0.122,inactive: 0.029,inactive: -0.03,inactive: 0.381,inactive: 0,inactive: -0.023
HADHB (UniProt P55084),inactive: -0.025,inactive: 0.074,inactive: -0.326,inactive: 0.068,inactive: -0.155,inactive: 0.37,inactive: -0.106,inactive: -0.05,,inactive: 0.104,inactive: 0.19,inactive: -0.248,inactive: -0.002,inactive: -0.012,inactive: -0.085,inactive: -0.047,inactive: -0.042,inactive: 0.113,inactive: 0.064,inactive: 0

# Single records (already shown). Values in the order: log2 fold change (IRAK-1-4 Inhibitor I)	log2 fold change (ibrutinib)	log2 fold change [1]	log2 fold change (ralimetinib)	log2 fold change [2]	log2 fold change [3]	log2 fold change [4]	log2 fold change (pinometostat)	log2 fold change [5]	log2 fold change [6]	log2 fold change [7]	log2 fold change [8]	log2 fold change [9]	log2 fold change [10]	log2 fold change (Nexturastat A)	log2 fold change (vemurafenib)	log2 fold change [11]	log2 fold change [12]	log2 fold change (givinostat)	log2 fold change (barasertib)
# HCCS (UniProt P53701) is listed as inactive: 0.024	inactive: 0.01	inactive: -0.001	inactive: -0.103	inactive: -0.001	inactive: -0.011	inactive: 0.044	inactive: -0.014	inactive: 0.017	inactive: 0	inactive: -0.03	inactive: 0.021	inactive: 0.034	inactive: -0.011	inactive: -0.025	inactive: -0.033	inactive: 0	inactive: -0.059	inactive: -0.021	inactive: -0.01
# GTPBP1 (UniProt O00178) is listed as inactive: 0.026	inactive: 0.009	inactive: -0.02	inactive: 0	inactive: 0.014	inactive: 0.001	inactive: 0.037	inactive: 0.038	inactive: -0.008	inactive: -0.053	inactive: -0.036	inactive: -0.032	inactive: 0.011	inactive: -0.028	inactive: 0.022	inactive: 0.018	inactive: 0.009	inactive: 0.05	inactive: 0.004	inactive: 0.014
